In experiment [1] the target is DLL4, epitope tagged (HIS6 or HA), expressed in 293T cells (UniProt Q9NR61). Nature of the experiment: pull-down; HIS tagged DLL4 immunopurified from 293T cells on nickel-NTA agarose, incubated with combinations of cell-expressed HA tagged DLL4 and JAG1; Western blot, bands quantified; only the target purified. Background: A western blot detects proteins with antibodies after separation by electrophoresis.

The chains behind the UniProt entries cited, without tags or fusion partners. Where a name states a change or a piece, a line headed by the entry shows the natural chain unless it says otherwise. Residues count along the entry.
UniProt Q9NR61, residues 27-685: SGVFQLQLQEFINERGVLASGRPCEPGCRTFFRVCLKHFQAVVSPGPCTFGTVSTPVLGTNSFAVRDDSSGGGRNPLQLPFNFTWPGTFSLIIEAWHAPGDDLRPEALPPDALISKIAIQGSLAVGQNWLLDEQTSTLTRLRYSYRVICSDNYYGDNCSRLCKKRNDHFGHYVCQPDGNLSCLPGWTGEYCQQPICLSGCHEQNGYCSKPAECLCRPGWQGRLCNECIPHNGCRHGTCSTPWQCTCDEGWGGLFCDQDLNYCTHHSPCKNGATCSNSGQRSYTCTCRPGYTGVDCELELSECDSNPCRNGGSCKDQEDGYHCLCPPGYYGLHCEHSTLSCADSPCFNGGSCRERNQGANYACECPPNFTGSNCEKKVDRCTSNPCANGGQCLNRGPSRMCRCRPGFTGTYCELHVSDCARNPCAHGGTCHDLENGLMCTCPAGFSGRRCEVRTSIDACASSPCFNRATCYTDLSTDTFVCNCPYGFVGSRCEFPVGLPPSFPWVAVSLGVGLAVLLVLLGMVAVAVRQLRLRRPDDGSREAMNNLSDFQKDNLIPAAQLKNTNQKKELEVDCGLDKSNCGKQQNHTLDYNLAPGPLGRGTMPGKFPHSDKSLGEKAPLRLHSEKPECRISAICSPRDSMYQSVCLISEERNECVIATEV
UniProt P78504: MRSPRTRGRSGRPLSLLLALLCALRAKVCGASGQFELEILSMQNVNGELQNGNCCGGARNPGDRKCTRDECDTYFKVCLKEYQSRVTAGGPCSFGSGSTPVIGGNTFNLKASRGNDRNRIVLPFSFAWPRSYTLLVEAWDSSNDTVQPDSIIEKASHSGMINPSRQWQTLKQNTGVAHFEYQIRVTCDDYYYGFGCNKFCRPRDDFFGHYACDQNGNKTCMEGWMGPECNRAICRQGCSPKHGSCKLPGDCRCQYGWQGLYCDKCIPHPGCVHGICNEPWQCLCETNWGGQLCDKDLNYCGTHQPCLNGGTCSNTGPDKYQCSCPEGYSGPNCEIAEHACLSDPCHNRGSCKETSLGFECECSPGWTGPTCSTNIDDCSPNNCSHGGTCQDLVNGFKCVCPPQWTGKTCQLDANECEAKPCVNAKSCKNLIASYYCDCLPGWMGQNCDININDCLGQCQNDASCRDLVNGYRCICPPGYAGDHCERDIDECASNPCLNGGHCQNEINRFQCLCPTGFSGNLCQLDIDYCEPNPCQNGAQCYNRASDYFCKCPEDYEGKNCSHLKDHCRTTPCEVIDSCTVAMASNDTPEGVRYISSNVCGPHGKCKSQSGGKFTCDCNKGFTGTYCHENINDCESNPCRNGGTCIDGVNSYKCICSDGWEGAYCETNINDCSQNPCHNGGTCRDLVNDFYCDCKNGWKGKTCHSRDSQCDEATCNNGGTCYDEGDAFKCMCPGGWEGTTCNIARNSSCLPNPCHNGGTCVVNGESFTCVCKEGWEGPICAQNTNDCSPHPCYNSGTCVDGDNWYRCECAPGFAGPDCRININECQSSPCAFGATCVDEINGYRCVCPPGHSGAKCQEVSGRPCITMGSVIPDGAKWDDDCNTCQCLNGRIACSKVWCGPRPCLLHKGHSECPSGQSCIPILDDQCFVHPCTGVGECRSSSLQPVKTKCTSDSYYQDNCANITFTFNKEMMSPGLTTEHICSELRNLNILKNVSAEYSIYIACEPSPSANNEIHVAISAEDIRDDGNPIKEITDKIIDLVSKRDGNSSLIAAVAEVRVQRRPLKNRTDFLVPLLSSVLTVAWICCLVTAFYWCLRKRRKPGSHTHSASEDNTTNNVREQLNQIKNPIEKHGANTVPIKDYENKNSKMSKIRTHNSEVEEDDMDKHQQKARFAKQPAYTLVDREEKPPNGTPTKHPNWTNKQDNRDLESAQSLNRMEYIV
UniProt Q9Y219, residues 24-1238: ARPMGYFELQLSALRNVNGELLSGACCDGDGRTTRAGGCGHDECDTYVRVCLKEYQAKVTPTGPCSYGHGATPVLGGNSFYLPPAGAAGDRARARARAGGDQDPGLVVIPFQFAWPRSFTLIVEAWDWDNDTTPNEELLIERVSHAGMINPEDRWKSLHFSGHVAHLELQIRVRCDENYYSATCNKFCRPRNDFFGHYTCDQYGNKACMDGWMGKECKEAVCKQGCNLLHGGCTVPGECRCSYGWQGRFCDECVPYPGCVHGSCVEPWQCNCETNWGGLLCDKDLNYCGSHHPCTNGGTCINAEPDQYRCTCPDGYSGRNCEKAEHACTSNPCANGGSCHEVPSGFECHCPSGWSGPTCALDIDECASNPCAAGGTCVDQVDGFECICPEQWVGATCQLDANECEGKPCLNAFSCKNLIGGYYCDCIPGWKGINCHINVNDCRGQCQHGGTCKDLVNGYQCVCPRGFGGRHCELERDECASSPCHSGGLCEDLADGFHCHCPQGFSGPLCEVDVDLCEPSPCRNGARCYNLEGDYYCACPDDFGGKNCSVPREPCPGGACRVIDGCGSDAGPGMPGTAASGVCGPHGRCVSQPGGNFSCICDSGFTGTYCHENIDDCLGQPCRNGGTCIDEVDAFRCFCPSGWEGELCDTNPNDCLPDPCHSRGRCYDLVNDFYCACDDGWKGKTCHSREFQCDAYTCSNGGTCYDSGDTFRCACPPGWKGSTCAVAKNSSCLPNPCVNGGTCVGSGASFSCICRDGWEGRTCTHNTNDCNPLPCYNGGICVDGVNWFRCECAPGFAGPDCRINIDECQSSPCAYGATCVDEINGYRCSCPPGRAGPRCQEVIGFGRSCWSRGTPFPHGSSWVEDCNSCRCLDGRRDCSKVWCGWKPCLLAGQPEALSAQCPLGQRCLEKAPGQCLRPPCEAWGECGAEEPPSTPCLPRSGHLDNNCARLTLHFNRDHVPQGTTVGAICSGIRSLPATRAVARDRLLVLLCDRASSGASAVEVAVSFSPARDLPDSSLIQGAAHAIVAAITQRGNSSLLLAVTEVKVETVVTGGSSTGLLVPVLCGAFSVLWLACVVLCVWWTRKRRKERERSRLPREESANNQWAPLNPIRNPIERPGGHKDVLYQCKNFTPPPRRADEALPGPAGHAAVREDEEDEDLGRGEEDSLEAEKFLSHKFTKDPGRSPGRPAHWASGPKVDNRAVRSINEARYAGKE
UniProt Q04721, residues 26-2471: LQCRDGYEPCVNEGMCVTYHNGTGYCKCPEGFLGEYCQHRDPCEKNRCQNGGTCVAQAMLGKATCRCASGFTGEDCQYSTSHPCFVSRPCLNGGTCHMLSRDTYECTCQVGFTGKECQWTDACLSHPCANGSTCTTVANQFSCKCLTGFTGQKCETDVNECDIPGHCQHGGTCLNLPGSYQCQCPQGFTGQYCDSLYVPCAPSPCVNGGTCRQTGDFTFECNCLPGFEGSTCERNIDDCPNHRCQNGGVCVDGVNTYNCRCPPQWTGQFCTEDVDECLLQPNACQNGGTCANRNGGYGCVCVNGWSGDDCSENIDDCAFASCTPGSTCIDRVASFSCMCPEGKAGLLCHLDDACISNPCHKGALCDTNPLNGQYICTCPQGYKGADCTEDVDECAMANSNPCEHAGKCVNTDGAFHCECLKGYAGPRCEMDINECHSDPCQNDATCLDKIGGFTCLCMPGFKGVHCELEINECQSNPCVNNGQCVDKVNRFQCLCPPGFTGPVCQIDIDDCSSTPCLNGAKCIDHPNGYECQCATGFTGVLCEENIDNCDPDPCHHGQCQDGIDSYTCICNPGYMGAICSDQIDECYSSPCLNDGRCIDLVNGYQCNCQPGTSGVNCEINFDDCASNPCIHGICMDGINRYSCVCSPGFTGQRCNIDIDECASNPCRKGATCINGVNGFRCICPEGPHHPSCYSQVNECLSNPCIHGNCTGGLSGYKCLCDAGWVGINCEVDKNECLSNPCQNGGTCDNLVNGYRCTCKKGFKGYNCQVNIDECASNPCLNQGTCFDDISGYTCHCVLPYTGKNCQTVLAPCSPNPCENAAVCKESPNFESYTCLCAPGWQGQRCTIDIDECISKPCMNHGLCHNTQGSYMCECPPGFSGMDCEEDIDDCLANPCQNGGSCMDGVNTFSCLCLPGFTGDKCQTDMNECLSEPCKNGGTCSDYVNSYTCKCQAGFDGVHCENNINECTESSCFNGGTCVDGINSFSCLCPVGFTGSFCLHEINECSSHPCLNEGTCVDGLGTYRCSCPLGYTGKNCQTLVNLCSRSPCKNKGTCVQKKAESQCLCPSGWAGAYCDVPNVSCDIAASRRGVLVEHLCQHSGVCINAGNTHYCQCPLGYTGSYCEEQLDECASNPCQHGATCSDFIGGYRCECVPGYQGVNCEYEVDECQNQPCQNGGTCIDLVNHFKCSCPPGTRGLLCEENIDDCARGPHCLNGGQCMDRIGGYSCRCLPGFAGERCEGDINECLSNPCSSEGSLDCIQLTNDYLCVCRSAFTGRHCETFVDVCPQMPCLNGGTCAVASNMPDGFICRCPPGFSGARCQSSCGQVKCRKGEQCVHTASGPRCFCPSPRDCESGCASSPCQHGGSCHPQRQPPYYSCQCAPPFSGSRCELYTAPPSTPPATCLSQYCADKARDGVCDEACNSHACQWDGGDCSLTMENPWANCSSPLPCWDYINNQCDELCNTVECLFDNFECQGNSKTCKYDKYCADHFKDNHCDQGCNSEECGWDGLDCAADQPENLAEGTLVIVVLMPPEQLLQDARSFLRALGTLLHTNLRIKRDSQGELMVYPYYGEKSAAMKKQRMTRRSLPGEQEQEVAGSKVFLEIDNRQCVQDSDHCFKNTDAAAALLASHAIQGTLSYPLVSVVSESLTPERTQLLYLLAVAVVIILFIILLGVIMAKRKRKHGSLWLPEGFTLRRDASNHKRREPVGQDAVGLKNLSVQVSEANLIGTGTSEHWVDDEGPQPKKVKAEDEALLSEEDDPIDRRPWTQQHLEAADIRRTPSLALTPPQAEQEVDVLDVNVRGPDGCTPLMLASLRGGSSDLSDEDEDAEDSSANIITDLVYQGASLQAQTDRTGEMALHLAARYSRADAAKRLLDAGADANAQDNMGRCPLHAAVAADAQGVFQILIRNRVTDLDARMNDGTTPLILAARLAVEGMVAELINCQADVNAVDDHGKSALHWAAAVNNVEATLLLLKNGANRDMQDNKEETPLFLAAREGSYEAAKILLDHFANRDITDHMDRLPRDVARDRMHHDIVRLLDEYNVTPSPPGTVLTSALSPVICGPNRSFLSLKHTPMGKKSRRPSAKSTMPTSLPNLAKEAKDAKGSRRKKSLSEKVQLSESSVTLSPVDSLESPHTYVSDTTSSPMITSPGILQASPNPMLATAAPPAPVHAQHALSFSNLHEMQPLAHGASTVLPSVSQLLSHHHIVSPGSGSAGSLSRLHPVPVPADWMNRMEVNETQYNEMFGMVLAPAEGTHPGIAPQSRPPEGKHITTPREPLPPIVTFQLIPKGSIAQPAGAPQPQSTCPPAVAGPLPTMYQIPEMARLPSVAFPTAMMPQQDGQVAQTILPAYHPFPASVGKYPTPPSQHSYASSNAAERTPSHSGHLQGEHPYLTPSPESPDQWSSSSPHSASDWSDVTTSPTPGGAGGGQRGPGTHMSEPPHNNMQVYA

Experiment [2] shares this target. Nature of the experiment: pull-down; HA and HIS epitope tagged ligand constructs co-transfected into 293T cells; complexes resolved using Nickel-NTA agarose (binds HIS6 tagged ligands); Western blot.
For experiment [3], the target named is JAG1, epitope tagged (HIS6 or HA), expressed in 293T cells (UniProt P78504). Nature of the experiment: co-IP; 293T cells co-transfected with HA-tagged JAG1 and HIS6-tagged Notch (in cis); ligand resolved using an anti-HA antibody; Western blot.
Experiment [4] deals with JAG2, epitope tagged (HIS6 or HA), expressed in 293T cells (UniProt Q9Y219). Nature of the experiment: pull-down; HA and HIS epitope tagged ligand constructs co-transfected into 293T cells; complexes resolved using Nickel-NTA agarose (binds HIS6 tagged ligands); Western blot.
The target in experiment [5] is HA epitope tagged Notch2, stably expressed on 293T cells (UniProt Q04721). Nature of the experiment: cross-linking + co-IP; cell surface ligand/receptor binding assay: 293T cells stably expressing HA-tagged Notch receptor incubated with 50 μL of HIS tagged ligand (0.5 mg/ml) in 1.5 mls PBS/BSA, 1 hour, 4 °C; cross-linked with DSS and BS3; lysed; immunoprecipitated with anti-HA; Western blot anti-HIS; only the binder purified.

Experiment [6] deals with HA epitope tagged Notch3, stably expressed on 293T cells (UniProt Q9UM47). The experiment is described as above.

No constants are given. Whether binding was seen depends on the method and setting. Binding seen in cells or lysates may run through a third protein. Some entries that bind do so weakly or less than the wild type.

As to “DLL4, epitope tagged (HIS6 or HA), expressed in 293T cells (from UniProt Q9NR61 27-685) (ligand)”, the binding result in experiment [1] and in experiment [2] was “binds” each time.

Consider “HIS6 epitope-tagged Notch (Notch1), co-transfected in 293T cells (from UniProt P46531 19-2555) (receptor)”, for which, in experiment [3], the binding result is given as “binds”.

As to “JAG1, epitope tagged (HIS6 or HA), expressed in 293T cells (from UniProt P78504 34-1218) (ligand)”, the binding result in experiment [1] and in experiment [2] was “binds” throughout.

“JAG2, epitope tagged (HIS6 or HA), expressed in 293T cells (from UniProt Q9Y219 24-1238) (ligand)”: the binding result in experiment [4] is given as “binds”.

As for “Recombinant human JAG1 protein, HIS epitope tagged (from UniProt P78504 34-1067) (ligand)”, the binding entry in experiment [5] and in experiment [6] was “binds” throughout.

Values taken from paper PMC11841921.
